# Results from PubChem BioAssay AID485298 (National Center for Advancing Translational Sciences (NCATS), 2010).
# The campaign covered roughly 320,000 compounds. About 740 (0.23%) were called active. Inconclusive results, whose numbers are uncertain, are shown with a selection of clear calls. The call rests on the fitted dose curve; in most records, active means well fitted activation curve with a large enough effect; inconclusive means small, poorly fitted or top-dose-only effect; inactive means no such curve, though single readings can be large or run the other way. Where the call is inconclusive, the potency comes from a doubtful curve fit.
# Assay: qHTS Assay for Small Molecule Inhibitors of Mitochondrial Division or Activators of Mitochondrial Fusion; further: nearly all actives have a fitted effect of over 45% in size;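 on growth rescue (activation): temperature-sensitive fusion mutants such as fzo1-1 at 37 °C on non-fermentable ethanol glycerol medium; % of control where 0% means no effect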
# Settings: S. cerevisiae fusion-defective mutant growth rescue, CellTiterGlo 48 h; growth rescue (activation): at 46.1 µM (top of the series) unless noted
# In short: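 Growth-rescue viability read-out: after 48 h at the non-permissive 37C in glycerol/ethanol YPEG, yeast mitochondrial fusion mutants are measured by CellTiterGlo luminescence; compounds (23 nl pinned per well) restoring growth score as division inhibitors or fusion activators.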
# Potency means the concentration at half of the fitted maximal effect.
SMILES,growth rescue (activation),Potency
COc1ccc(CC(=O)Nc2ccc(S(=O)(=O)N3CCC(C)CC3)cc2)c(OC)c1,inactive: 19.7%,–
CCc1ccc(Nc2ncc3c(n2)CC(c2ccco2)CC3=O)cc1 (stereo not given),–,active: 11.2 µM
Fc1ccccc1COc1ccc(Br)cc1CNCc1ccncc1,–,"inconclusive: 22.4 µM [activator, single point]"
Cc1cccc(C)c1NC(=O)c1c(C)nn(-c2ccccc2)c1Cl,inactive: -2.71%,–
COc1ccc(-c2[nH]c(-c3ccc(C)cc3)nc2SCC(=O)Nc2nccs2)cc1,–,"inconclusive: 14.1 µM [activator, partial curve]"
CN1C(=O)CC(Nc2cccc3cccc(N)c23)C1=O (stereo not given),–,"inconclusive: 35.5 µM [activator, single point]"
O=[N+]([O-])c1ccc(S(=O)(=O)N2CCN(C3CCN(Cc4ccccc4)CC3)CC2)cc1,–,"inconclusive: 14.1 µM [activator, partial curve]"
Cc1cccc(-n2c(C)cc(/C=N/NC(N)=S)c2C)c1,–,"inconclusive: 20 µM [activator, single point]"
CC(=O)N1CCN(c2ccc(NC(=O)c3ccc(Cl)cc3)cc2)CC1,inactive: -0.435%,–
O=c1c2ccccc2nc(-c2ccccc2)n1Cc1ccccc1,–,"inconclusive: 11.2 µM [activator, partial curve]"
O=C(COc1ccccc1Br)Nc1ccc(S(=O)(=O)N2CCCC2)cc1,–,"inconclusive: 5.62 µM [activator, single point]"
CN(N)c1nc2ccccc2nc1C(F)(F)F,inactive: -2.66%,–
Clc1ccc(C(c2nnnn2CCc2ccccc2)N2CCSCC2)cc1 (stereo not given),–,"inconclusive: 20 µM [activator, single point]"
CC1(C)CC2CC(C)(CN2c2ncnc3ccc(Br)cc23)C1 (stereo not given),–,active: 15.8 µM
O=C1Nc2ccccc2C12OCC(COc1ccc(Cl)cc1)O2 (stereo not given),–,"inconclusive: 20 µM [activator, partial curve]"
O=C1C(Cc2ccccc2)Nc2ncnc(N3CCN(c4ccccc4)CC3)c2N1Cc1ccc(Cl)cc1 (stereo not given),–,"inconclusive: 8.91 µM [activator, partial curve]"
COC(=O)c1cc(S(=O)(=O)N2CCN(Cc3ccccc3)CC2)c[nH]1,–,"inconclusive: 8.91 µM [activator, partial curve]"
CC1(C)Cc2cccc(OCC(=O)Nc3ccccc3N3CCOCC3)c2O1,–,"inconclusive: 22.4 µM [activator, single point]"
O=C1CC(c2ccco2)Cc2nc(Nc3ccc(F)cc3)ncc21 (stereo not given),–,"inconclusive: 25.1 µM [activator, single point]"
O=C(ON=C1CCN(S(=O)(=O)c2ccccc2)CC1)c1ccc(Cl)cc1,–,"inconclusive: 31.6 µM [activator, single point]"

# As a short view, some entries already given:
SMILES,growth rescue (activation),Potency
Cc1cccc(-n2c(C)cc(/C=N/NC(N)=S)c2C)c1,–,"inconclusive: 20 µM [activator, single point]"
CC(=O)N1CCN(c2ccc(NC(=O)c3ccc(Cl)cc3)cc2)CC1,inactive: -0.435%,–
